Experimental findings from PMC10869706, “Chp1 is a dedicated chaperone at the ribosome that safeguards eEF1A biogenesis” (Nature Communications, 2024) are described below.

Results are given in words; binding and its absence hold for the method and conditions named. Binding seen in cells or lysates may run through a third protein. Some binding calls cover weakened binding; strength is not graded here.

The target in the test is T1, Egd2 co-expressed in E. coli (yeast (S. cerevisiae)) (UniProt P38879).
T1 sequence: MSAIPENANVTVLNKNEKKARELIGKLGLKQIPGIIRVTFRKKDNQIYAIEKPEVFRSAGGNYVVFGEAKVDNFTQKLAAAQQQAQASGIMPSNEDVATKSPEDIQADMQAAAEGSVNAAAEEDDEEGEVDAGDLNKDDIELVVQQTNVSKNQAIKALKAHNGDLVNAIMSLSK
The test can be described thus: pull-down; co-expression in E. coli; soluble lysate in LWB150 (40 mM Hepes-KOH pH 7.4, 150 mM KCl, 5 mM MgCl2, 5% glycerol) put through IMAC (Ni-IDA) by the 6xHis-SUMO tag on Chp1; SDS-PAGE.

B1: Egd1 co-expressed in E. coli (protein, UniProt Q02642 1-157)
chain: MPIDQEKLAKLQKLSANNKVGGTRRKLNKKAGSSAGANKDDTKLQSQLAKLHAVTIDNVAEANFFKDDGKVMHFNKVGVQVAAQHNTSVFYGLPQEKNLQDLFPGIISQLGPEAIQALSQLAAQMEKHEAKAPADAEKKDEAIPELVEGQTFDADVE
Consider B1, for which the binding result is recorded as “binds”.
